Results reported in US20240101645A1.
These are yes or no findings as the source states them, for the method shown. Some binding calls cover weakened binding; strength is not graded here.

B1: COV_2169 (antibody, V domains shown)
VH: EVQLVESGGGVVQPGRSLRLSCAASGFTFSRYAMHWVRQAPGKGLEWVAVISYEGSNKYYADSVKGRFTISRNNSNNTLSLQMNSLRPDDTAVYYCVRSGGHYFDAFDLWGQGTMVTVSS
VL: EIVLTQSPGTLSLSPGERATLSCRASQSVSRNYVAWYQQKPGQAPRLLIYGASSRATGIPDRFSGSGSGTDFTLTISRLEPEDFALYYCQQYGSSYTFGQGTKLEIKR
B2: COV_3103 (antibody, V domains shown)
VH: EVQLVESGGGLVQPGRSLRLSCVASGFIVENFAMHWVRQAPGKGLEWVSGITWNSASTGYVESVKGRFSISRDNGENSMFLEMNSLRPDDTALYYCVKATGSYWGFPMDVWGQGTTVTVSS
VL: EIVLTQSPGTLSLSPGEGGTLSCRASQSVRSNYLAWYQRKPGQAPRLLIYATSNRATGIPDRFSGSGSGTDFTLTISRLEPEDFAVYFCQHYGDSPYTFGQGTKLEIKR

Target: SARS-CoV-2 S2 subunit antigen (SARS-CoV-2) (UniProt P0DTC2)
Experiment: multiplex bead assay

Binder	binding
B1	binds
B2	binds
